Reference: doi:10.1101/2020.01.05.895219
Results are given in words; binding and its absence hold for the method and conditions named. Binding seen in cells or lysates may run through a third protein. Some entries that bind do so weakly or less than the wild type. One block for each binder: values may come before it.

How the values were obtained:
Assay in all cases: cross-linking
[1] = target: ExbD (E. coli (endogenous in W3110)) (UniProt P0ABV2)
[2] = target: T1, ExbB (E. coli (endogenous in W3110)) (UniProt P0ABU7)
T1 sequence: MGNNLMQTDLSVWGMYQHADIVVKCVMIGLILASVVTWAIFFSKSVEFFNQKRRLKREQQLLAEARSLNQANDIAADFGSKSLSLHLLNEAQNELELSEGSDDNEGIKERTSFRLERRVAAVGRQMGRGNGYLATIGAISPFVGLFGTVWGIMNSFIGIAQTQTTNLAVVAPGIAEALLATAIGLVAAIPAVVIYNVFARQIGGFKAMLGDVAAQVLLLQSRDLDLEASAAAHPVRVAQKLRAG

[3] = target: TonB (E. coli (endogenous in W3110)) (UniProt P02929)
[4] = target: T2, FepA (E. coli (endogenous in W3110)), P05825; conditions: remark: other sources report otherwise
T2 chain: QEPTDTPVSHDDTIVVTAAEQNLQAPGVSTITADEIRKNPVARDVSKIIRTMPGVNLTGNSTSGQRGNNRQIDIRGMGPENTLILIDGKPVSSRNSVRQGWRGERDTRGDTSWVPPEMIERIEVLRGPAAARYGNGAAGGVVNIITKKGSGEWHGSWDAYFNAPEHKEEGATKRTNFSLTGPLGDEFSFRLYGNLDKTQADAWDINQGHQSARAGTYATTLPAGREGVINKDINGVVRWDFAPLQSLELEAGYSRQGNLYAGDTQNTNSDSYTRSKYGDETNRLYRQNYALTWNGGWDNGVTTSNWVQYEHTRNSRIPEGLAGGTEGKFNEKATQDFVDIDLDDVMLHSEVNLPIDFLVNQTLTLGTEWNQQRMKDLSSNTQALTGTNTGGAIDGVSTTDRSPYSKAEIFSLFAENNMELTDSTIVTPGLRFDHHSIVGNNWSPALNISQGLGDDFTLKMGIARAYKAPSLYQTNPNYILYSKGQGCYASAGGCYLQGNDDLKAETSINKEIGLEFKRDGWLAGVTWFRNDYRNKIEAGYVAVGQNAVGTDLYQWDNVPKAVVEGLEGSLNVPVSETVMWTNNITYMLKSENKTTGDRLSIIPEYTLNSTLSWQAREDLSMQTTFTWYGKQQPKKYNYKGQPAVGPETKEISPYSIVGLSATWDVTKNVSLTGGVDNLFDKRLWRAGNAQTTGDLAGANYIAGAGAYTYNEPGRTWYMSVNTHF

binding [1]: binds
binding [2]: binds
binding [3]: binds
B1: ExbD (protein, UniProt P0ABV2 1-141)
chain: MAMHLNENLDDNGEMHDINVTPFIDVMLVLLIIFMVAAPLATVDVKVNLPASTSTPQPRPEKPVYLSVKADNSMFIGNDPVTDETMITALNALTEGKKDTTIFFRADKTVDYETLMKVMDTLHQAGYLKIGLVGEETAKAK

binding [4]: binds
B2: TonB, P02929 1-239 (protein)
chain: MTLDLPRRFPWPTLLSVCIHGAVVAGLLYTSVHQVIELPAPAQPISVTMVTPADLEPPQAVQPPPEPVVEPEPEPEPIPEPPKEAPVVIEKPKPKPKPKPKPVKKVQEQPKRDVKPVESRPASPFENTAPARLTSSTATAATSKPVTSVASGPRALSRNQPQYPARAQALRIEGQVKVKFDVTPDGRVDNVQILSAKPANMFEREVKNAMRRWRYEPGKPGSGIVVNILFKINGTTEIQ
